The source of these data is PubChem BioAssay AID493201 (National Center for Advancing Translational Sciences (NCATS), 2011).

Structures are written as SMILES. This is a selection; strong and weak results do not stand in their true shares. The source gives no active or inactive call for entries shown without one. Inconclusive results are not listed. Calls of active or inactive are those of the source. Calls come from the whole dose curve; as a rule, active = well fitted activation curve with a large enough effect; inconclusive = small, poorly fitted or top-dose-only effect; inactive = no such curve, though single readings can be large or run the other way.

The assay is described as follows: qHTS Assay for Identifying a Potential Treatment of Ataxia-Telangiectasia: Secondary assay (no NCS) hit validation.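 Note: phosphorylated KAP1 signal as a proxy for ATM-like kinase activity; 0% is about no effect.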 To be noted: A-T patient fibroblasts, AlphaLISA, no DNA damage added, 90 min; at 76.9 µM (top of the series). The text has this:
NIH Chemical Genomics Center [NCGC]
NIH Molecular Libraries Probe Centers Network [MLPCN]
Assay Submitter (PI): Wei Zheng and Yosef Shiloh
Ataxia-telangiectasia (A-T) is a devastating and progressive disease for which, there is no cure. Although A-T is a multisystem disease, it is stereotyped characterized by its neurological symptoms such as truncal ataxia, due to cerebellar cortical degeneration of the Purkinje and granule cells. Other symptoms of A-T are telangiectasias (dilated blood vessels), primary immunodeficiency, marked sensitivity to ionizing radiation (IR), chromosomal instability and predisposition to cancer.
The underlying genetic cause of A-T is null mutations in the ATM (A-T mutated) gene. ATM is a nuclear serine/threonine kinase that functions as a master regulator of the cellular responses to double strand breaks (DSBs) in the DNA. Upon activation by DSBs, ATM phosphorylates a plethora of downstream targets, including KAP-1 on […]. KAP-1 phosphorylation occurs shortly in response to DSBs and mediates global chromatin relaxation, which facilitates DSB repair. To screen for small molecules that will compensate for the loss of ATM in cells derived from A-T patients, we monitored KAP-1 phosphorylation as a readout for ATM-like activity using an AlphaLISA assay. This secondary assay omits NCS, which creates double-stranded DNA breaks.
Step,Parameter,Value,Description
1. Cell Plating, 3 ul, 500 cells/well in OPTI-MEM, 1% FBS, 1% Pen/Strep
3. Library compounds, 23 nl, 76.7 - 0.61uM dilution series final concentration
4. Incubation, 60 min, 37C, 5% CO2, 95% humidity
6. Incubation, 30 min, 37C, 5% CO2, 95% humidity
7. Reagent, 1 ul, Premixed detection reagents and lysis buffer
8. Reagent, 1 ul, 0.6% Antifoam A
9. Incubation, 6 hr, 25C, 95% humidity
10. Readout, EnVision, EnVision plate reader. AlphaScreen 1536-well protocol
Cells were plated using medium-binding white solid-bottom tissue culture treated Kalypsys plates. […] EnVision protocol for 1536-well AlphaScreen read (30ms excitation, 100ms read), about 10 min/plate.
(In general: qHTS replaces the single test concentration by a dilution series.)
Take `CCC(=O)NC1=C(Cl)C(=O)C(NC(=O)CC)=C(Cl)C1=O`: the activation was inactive: 16.1%.

The compound `Cc1ccc(C(C)C)c(OCCN2CCc3ccccc3C2)c1` had an activation of 223%.

In turn, `COCCNC(=O)c1c(N)n(-c2cccc(C)c2)c2nc3ccccc3nc12` yielded an activation of 180%.
